Results are given in words; binding and its absence hold for the method and conditions named. For part of these data: A result given as binding can be weak or reduced; the word gives no strength. For part of these data: Tags and fused reporters may be left off the sequences shown.
Key:
GST-UPF1-Hel (human) = target: T1, GST-UPF1-Hel (human) (UniProt Q92900); test: pull-down
T1 sequence: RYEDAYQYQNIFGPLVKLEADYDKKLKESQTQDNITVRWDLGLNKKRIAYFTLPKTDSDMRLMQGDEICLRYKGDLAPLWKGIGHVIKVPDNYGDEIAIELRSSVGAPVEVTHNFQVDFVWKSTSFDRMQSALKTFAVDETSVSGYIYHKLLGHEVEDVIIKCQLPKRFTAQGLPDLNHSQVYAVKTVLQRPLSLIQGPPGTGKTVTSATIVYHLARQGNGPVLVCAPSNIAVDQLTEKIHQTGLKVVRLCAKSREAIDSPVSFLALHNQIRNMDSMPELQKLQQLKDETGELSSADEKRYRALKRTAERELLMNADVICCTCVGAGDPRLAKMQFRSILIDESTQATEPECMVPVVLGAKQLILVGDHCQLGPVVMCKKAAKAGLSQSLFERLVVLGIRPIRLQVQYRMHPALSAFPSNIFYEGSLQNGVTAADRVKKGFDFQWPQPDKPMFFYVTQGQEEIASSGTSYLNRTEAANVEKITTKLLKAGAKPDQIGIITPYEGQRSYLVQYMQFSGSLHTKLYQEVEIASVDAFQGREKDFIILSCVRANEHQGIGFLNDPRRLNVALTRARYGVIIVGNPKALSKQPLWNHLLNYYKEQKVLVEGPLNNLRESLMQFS

3’hExofl = target: T2, 3’hExofl (human, UniProt Q8IV48 1-349); test: SEC
T2 sequence (looked up): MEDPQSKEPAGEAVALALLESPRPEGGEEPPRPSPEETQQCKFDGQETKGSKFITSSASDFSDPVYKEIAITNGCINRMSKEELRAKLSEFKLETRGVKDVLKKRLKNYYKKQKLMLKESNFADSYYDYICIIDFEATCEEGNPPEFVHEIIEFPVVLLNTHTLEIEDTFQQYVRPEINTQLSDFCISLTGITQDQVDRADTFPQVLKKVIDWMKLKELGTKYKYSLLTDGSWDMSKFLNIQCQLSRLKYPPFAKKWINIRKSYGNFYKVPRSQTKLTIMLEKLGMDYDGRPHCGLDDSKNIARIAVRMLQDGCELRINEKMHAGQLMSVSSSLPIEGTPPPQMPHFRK

| binding (GST-UPF1-Hel (human)) | binding (3’hExofl) | Substance |
| --- | --- | --- |
| binds | – | SLBP with internal deletion of amino acids 21-57 (human) (domain or fragment) |
| binds | – | SLBP with internal deletion of amino acids 31-60 (human) (domain or fragment) |
| – | no binding | UPF2ΔAL (human) (domain or fragment) |

— article doi:10.1101/2025.02.23.639735 (bioRxiv, 2025)
